Source: article doi:10.1101/2025.06.16.659956

Chains of the proteins cited; added tags and fusions are not shown.
UniProt Q6PDQ2: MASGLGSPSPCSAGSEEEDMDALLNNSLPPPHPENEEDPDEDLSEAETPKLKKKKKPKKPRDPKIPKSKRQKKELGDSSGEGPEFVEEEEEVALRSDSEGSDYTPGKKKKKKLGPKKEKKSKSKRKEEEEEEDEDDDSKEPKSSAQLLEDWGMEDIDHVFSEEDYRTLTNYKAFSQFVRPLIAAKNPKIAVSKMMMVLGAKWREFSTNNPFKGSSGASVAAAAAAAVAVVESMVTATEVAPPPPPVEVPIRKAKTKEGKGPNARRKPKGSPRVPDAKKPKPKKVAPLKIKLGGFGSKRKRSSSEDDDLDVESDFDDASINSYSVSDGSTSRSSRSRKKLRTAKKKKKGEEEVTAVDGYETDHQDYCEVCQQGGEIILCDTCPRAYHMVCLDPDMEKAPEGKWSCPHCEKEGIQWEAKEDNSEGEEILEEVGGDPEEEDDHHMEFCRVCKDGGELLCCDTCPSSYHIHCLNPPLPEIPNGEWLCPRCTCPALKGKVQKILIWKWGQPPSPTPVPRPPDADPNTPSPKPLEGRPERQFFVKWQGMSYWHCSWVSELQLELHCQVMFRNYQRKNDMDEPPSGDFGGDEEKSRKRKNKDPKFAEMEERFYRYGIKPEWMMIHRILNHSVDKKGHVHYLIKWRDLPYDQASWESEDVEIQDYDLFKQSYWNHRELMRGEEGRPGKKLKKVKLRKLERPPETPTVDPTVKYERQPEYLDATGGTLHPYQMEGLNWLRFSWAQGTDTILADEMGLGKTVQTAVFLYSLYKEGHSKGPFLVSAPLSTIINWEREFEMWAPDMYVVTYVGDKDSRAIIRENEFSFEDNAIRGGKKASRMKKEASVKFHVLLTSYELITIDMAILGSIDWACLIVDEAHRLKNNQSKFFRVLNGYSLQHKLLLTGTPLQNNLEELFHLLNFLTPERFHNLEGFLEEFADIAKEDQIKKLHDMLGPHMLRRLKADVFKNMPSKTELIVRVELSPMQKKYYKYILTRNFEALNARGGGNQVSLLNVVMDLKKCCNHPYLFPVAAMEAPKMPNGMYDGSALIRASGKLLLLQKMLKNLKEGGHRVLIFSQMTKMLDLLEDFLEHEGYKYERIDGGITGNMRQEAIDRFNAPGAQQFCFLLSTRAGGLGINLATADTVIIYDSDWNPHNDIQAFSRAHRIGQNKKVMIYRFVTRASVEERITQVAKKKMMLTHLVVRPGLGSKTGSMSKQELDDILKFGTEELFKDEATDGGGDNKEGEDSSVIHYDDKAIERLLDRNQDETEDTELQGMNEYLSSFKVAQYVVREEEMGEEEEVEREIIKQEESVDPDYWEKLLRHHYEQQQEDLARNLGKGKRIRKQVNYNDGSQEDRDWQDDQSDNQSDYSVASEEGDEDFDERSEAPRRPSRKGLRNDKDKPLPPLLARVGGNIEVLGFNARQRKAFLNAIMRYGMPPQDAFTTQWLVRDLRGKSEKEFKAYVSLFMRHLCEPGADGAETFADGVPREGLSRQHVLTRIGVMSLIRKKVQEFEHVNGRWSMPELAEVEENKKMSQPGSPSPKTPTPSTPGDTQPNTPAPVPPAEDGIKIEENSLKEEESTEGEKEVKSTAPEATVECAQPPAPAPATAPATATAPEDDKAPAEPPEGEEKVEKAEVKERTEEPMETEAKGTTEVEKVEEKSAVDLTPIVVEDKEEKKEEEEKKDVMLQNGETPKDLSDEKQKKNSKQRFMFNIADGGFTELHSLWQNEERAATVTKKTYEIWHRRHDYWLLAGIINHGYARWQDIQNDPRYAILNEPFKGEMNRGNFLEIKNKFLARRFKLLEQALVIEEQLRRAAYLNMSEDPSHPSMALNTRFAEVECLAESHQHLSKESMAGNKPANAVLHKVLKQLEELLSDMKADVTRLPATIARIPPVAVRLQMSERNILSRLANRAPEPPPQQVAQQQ
UniProt P13864: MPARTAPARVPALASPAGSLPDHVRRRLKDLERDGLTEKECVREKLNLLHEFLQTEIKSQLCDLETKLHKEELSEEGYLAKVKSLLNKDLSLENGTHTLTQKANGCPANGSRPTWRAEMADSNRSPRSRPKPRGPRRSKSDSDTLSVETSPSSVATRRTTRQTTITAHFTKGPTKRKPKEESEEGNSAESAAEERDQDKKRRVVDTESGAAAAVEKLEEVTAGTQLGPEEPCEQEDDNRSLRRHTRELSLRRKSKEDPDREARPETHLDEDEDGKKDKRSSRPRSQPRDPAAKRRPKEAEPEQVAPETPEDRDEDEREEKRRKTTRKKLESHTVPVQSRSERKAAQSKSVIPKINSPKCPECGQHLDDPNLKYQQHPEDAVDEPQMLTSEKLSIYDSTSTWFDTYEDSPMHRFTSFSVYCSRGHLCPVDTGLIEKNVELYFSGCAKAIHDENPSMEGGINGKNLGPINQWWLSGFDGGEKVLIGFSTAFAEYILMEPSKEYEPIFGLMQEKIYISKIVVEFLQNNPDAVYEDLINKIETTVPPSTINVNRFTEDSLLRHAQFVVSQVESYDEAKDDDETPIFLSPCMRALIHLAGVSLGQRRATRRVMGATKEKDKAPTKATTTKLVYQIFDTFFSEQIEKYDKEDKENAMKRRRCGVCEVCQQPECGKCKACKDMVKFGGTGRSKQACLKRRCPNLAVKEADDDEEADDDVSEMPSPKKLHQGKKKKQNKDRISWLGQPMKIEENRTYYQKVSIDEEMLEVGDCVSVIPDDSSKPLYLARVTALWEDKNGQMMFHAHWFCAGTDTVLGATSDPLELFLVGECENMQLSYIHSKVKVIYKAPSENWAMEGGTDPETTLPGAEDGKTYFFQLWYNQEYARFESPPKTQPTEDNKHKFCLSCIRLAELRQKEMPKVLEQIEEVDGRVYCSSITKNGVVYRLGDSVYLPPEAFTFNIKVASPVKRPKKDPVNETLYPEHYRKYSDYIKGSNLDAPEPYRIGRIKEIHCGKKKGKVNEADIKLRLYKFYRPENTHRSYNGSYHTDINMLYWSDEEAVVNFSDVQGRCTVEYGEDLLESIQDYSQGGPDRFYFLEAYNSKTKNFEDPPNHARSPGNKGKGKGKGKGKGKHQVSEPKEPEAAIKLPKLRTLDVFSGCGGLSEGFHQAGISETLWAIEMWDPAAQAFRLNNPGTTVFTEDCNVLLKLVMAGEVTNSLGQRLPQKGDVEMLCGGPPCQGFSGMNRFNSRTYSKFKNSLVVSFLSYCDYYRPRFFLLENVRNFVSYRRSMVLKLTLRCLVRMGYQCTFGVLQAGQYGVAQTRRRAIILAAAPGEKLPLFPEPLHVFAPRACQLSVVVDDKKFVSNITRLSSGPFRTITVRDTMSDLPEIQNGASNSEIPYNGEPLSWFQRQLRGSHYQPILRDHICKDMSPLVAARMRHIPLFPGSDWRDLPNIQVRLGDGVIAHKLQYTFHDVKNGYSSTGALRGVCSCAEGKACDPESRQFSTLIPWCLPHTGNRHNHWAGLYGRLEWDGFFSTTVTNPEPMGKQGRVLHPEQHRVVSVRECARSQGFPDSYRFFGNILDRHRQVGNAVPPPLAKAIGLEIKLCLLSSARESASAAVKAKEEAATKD
UniProt P70288: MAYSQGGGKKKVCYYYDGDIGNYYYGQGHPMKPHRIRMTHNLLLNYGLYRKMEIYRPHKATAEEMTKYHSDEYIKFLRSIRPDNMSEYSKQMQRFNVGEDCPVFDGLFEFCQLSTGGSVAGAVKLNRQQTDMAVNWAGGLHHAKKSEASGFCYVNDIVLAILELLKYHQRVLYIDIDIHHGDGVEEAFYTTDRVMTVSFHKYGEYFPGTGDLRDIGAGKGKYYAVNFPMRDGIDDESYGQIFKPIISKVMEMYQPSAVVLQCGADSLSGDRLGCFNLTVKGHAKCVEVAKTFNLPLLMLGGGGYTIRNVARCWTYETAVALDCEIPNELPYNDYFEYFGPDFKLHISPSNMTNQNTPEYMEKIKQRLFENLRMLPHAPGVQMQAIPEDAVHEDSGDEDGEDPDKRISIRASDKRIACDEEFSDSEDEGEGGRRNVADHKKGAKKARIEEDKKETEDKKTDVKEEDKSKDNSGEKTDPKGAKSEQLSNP
UniProt O09106: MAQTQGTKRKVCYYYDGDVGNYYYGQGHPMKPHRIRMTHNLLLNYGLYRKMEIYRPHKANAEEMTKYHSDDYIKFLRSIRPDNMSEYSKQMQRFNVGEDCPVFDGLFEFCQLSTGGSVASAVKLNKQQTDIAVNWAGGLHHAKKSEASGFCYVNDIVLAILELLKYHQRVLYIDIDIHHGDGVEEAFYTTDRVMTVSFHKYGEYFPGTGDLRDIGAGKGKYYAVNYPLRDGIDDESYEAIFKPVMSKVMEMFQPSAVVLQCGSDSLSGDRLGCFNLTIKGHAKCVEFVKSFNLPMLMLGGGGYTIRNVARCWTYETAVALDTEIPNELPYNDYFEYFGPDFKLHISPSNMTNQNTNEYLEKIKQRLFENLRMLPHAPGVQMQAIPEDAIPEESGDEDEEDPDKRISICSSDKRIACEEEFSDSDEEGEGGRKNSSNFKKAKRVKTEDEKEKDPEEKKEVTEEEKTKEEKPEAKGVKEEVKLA
UniProt Q8K4B0: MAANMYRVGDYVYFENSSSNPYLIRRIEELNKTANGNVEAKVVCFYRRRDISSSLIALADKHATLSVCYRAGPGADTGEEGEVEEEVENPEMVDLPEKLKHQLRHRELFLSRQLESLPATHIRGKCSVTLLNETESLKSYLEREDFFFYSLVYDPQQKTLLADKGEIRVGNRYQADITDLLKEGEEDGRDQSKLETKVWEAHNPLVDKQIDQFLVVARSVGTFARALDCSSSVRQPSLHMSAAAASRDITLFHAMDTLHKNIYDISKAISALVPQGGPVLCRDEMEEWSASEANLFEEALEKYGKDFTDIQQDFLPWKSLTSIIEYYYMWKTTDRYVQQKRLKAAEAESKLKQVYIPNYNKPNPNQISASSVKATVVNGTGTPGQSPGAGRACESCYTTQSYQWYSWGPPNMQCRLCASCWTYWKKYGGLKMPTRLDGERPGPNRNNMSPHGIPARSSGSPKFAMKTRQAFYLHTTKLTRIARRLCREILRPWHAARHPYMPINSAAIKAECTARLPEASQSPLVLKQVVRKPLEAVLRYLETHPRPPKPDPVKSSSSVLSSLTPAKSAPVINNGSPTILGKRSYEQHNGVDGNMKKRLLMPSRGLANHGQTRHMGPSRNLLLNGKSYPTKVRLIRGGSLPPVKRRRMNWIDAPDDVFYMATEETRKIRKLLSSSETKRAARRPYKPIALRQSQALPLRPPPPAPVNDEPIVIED
UniProt Q9R190: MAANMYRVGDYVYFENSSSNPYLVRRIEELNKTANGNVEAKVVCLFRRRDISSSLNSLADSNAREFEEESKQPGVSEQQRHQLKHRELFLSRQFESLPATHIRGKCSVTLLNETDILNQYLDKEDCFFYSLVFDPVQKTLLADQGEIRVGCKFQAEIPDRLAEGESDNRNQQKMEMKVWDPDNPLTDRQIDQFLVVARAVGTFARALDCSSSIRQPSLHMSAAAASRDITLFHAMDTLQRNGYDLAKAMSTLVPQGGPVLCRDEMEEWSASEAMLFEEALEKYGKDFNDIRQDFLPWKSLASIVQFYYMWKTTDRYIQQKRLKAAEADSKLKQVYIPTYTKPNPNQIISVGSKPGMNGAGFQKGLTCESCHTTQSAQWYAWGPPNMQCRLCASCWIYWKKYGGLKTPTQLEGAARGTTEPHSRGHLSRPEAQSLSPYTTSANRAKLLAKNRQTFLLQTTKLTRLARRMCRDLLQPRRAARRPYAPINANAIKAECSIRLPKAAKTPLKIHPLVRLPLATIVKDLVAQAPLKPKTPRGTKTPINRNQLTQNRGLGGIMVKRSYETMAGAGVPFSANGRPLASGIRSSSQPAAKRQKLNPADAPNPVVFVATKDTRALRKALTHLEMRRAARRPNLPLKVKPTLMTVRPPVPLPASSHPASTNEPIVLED
UniProt P52946: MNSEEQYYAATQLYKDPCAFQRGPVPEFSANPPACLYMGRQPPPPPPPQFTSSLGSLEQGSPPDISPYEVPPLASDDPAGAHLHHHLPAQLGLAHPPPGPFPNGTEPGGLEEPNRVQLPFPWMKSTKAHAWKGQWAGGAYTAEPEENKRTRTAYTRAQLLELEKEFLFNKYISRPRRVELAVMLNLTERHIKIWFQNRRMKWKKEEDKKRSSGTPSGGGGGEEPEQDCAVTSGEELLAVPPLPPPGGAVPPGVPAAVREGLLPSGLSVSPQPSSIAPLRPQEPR

T1: 3x Myc-NKX2.2 WT (full-length NKX2.2 with 3 myc epitope tags at the N-terminus) (UniProt P42586)
T1 sequence: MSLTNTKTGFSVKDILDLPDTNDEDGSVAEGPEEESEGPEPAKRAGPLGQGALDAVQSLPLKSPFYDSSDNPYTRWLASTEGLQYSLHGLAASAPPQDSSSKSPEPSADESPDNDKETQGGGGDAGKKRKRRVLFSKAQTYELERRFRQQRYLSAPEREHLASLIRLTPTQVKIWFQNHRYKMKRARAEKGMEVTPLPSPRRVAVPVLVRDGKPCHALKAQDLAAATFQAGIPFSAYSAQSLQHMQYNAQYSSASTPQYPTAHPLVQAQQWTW


Columns and labels:
Experiment in all cases: affinity purification with mass spectrometry
[1] = molecular target: T1, 3x Myc-NKX2.2 WT (full-length NKX2.2 with 3 myc epitope tags at the N-terminus)
[2] = molecular target: Chromodomain Helicase DNA-binding Protein 4 (CHD4) (mouse (endogenous in MIN6)) (UniProt Q6PDQ2)
[3] = molecular target: Chromodomain Helicase DNA-binding Protein 4 (CHD4) (mouse (endogenous in MIN6)) (UniProt Q6PDQ2); remark: listed apart in the source

| binding [1] | binding [2] | binding [3] | Molecule |
| --- | --- | --- | --- |
| binds |  |  | Chromodomain Helicase DNA-binding Protein 4 (CHD4) (from UniProt Q6PDQ2 1-1915) |
| binds | binds |  | DNMT1 (from UniProt P13864 1-1620) |
| binds |  |  | HDAC2 (from UniProt P70288 1-488) |
| binds |  |  | Histone deacetylase 1 (HDAC1) (from UniProt O09106 1-482) |
|  | binds |  | MTA1 (from UniProt Q8K4B0 1-715) |
|  | binds |  | MTA2 (from UniProt Q9R190 1-668) |
|  | binds |  | MTA3 (from UniProt Q924K8 1-591) |
| binds |  |  | Pancreas Duodenum Homeobox1 (PDX1) (from UniProt P52946 1-284) |
|  |  | binds | endogenous NKX2.2 (protein, UniProt P42586 1-273) MSLTNTKTGFSVKDILDLPDTNDEDGSVAEGPEEESEGPEPAKRAGPLGQGALDAVQSLPLKSPFYDSSDNPYTRWLASTEGLQYSLHGLAASAPPQDSSSKSPEPSADESPDNDKETQGGGGDAGKKRKRRVLFSKAQTYELERRFRQQRYLSAPEREHLASLIRLTPTQVKIWFQNHRYKMKRARAEKGMEVTPLPSPRRVAVPVLVRDGKPCHALKAQDLAAATFQAGIPFSAYSAQSLQHMQYNAQYSSASTPQYPTAHPLVQAQQWTW |

Where two headings read alike, the source gives them in different places. No constants are given. Whether binding was seen depends on the method and setting. In cells and extracts the contact can be indirect. These calls come from enrichment with a bait or labelling near it, and not all partners need be listed. For some of these results: Tags and fused reporters may be left off the sequences shown.
